From article doi:10.1101/2022.04.29.490041
Results are given in words; binding and its absence hold for the method and conditions named. Binding seen in cells or lysates may run through a third protein. Some entries that bind do so weakly or less than the wild type. Tags and fused reporters may be left off the sequences shown.

T1: NSF_(E326Q):GFP (dominant-negative variant of NSF, GFP-tagged) (Arabidopsis thaliana) (UniProt Q9M0Y8)
T1 sequence: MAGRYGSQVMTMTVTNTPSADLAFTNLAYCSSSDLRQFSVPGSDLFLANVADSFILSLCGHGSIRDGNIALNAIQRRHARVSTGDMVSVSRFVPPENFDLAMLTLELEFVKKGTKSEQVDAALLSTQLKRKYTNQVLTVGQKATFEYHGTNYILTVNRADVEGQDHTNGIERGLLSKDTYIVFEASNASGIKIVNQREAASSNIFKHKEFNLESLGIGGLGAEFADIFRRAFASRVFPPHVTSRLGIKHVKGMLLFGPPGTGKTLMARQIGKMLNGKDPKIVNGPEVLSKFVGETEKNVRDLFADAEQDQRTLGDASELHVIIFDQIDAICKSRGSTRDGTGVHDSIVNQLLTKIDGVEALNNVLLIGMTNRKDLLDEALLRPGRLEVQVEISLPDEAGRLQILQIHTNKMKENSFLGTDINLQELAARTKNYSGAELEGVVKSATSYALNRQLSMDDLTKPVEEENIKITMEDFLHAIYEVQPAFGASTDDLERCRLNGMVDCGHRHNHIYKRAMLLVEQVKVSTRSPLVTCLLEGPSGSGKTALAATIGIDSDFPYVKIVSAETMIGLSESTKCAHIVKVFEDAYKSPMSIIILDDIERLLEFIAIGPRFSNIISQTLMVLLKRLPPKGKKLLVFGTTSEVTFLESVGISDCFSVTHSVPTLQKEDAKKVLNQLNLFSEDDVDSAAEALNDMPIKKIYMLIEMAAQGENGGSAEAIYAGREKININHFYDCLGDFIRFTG

T2: mRFP:αSNAP2 (alpha-soluble NSF-associated protein 2, wild-type form, RFP-tagged) (Arabidopsis thaliana) (UniProt Q9SPE6)
T2 sequence: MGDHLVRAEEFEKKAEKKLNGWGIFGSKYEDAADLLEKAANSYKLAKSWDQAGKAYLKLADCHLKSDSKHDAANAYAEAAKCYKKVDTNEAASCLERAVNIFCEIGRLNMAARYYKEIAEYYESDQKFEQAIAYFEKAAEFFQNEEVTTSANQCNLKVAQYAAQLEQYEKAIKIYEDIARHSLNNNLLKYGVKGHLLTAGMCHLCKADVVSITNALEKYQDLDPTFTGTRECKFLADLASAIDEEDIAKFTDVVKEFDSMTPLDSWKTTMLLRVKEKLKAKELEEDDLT

T3: NSF:GFP (N-ethylmaleimide-sensitive factor, wild-type form, GFP-tagged) (Arabidopsis thaliana) (UniProt Q9M0Y8)
T3 sequence: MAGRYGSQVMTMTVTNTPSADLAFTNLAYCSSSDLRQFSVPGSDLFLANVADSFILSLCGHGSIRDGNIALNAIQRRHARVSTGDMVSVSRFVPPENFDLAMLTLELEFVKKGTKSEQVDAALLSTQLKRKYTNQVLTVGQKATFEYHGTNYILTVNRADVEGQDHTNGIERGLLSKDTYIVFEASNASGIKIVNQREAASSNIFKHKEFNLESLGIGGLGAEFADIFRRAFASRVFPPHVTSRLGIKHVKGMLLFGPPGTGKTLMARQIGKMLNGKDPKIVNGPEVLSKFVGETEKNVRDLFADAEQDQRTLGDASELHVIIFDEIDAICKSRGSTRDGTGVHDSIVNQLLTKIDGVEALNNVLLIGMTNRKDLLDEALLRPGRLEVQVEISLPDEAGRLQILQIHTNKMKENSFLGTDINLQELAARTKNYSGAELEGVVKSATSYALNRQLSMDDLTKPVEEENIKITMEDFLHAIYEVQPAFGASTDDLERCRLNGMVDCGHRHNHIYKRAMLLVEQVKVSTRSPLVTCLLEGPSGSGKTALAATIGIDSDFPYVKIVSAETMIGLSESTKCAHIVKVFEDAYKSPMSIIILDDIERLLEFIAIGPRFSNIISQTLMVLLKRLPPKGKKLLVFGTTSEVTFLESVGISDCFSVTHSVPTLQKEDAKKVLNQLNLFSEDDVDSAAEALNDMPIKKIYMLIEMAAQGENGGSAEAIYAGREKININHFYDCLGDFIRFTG

T4: mRFP:αSNAP2_(L288A) (dominant-negative variant of αSNAP2, RFP-tagged) (Arabidopsis thaliana) (UniProt Q9SPE6)
T4 sequence: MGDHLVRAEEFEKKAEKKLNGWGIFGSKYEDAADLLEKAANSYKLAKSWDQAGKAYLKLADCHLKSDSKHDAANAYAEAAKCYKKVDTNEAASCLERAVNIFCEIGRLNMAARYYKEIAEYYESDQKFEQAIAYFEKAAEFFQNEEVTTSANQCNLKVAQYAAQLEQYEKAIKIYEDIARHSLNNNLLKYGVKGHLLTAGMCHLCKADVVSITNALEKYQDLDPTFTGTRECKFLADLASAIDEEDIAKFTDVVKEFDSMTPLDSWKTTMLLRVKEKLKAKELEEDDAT


Legend:
Test in all cases: co-IP
[1] = target: T1, NSF_(E326Q):GFP (dominant-negative variant of NSF, GFP-tagged) (Arabidopsis thaliana)
[2] = target: T2, mRFP:αSNAP2 (alpha-soluble NSF-associated protein 2, wild-type form, RFP-tagged) (Arabidopsis thaliana)
[3] = target: T3, NSF:GFP (N-ethylmaleimide-sensitive factor, wild-type form, GFP-tagged) (Arabidopsis thaliana)
[4] = target: T4, mRFP:αSNAP2_(L288A) (dominant-negative variant of αSNAP2, RFP-tagged) (Arabidopsis thaliana)

binding [1]	binding [2]	binding [3]	binding [4]	Binder
binds	binds	binds	binds	SYP132 (Qa-SNARE, mainly plasma membrane) (protein, UniProt Q8VZU2 1-304) MNDLLKGSFELPRGQSSREGDVELGEQQGGDQGLEDFFKKVQVIDKQYDKLDKLLKKLQASHEESKSVTKAPAMKAIKKTMEKDVDEVGSIARFIKGKLEELDRENLANRQKPGCAKGSGVDRSRTATTLSLKKKLKDKMAEFQVLRENIQQEYRDVVDRRVYTVTGERADEDTIDELIETGNSEQIFQKAIQEQGRGQVMDTLAEIQERHDAVRDLEKKLLDLQQIFLDMAVLVDAQGEMLDNIESQVSSAVDHVQSGNTALQRAKSLQKNSRKWMCIAIIILLIVVAVIVVGVLKPWKNKSA
binds	binds	binds	binds	SYP61 (Q-SNARE, TGN) (protein, UniProt Q946Y7 1-245) MSSAQDPFYIVKEEIQDSIDKLQSTFHKWERISPDMGDQAHVAKELVATCGSIEWQVDELEKAITVAAKDPSWYGIDEAELEKRRRWTSNARTQVRNVKSGVLAGKVSSGAGHASEVRRELMRMPNSGEASRYDQYGGRDDDGFVQSESDRQMLLIKQQDEELDELSKSVQRIGGVGLTIHDELVAQERIIDELDTEMDSTKNRLEFVQKKVGMVMKKAGAKGQMMMICFLLVLFIILFVLVFLT
binds	binds	binds	binds	SYP71 (Qc-SNARE) (protein, UniProt Q9SF29 1-266) MTVIDILTRVDSICKKYDKYDVDKQREANISGDDAFARLYGAFETQIETALEKAELVTKEKNRAAAVAMNAEIRRTKARLSEEVPKLQRLAVKRVKGLTTEELAARNDLVLALPARIEAIPDGTAGGPKSTSAWTPSSTTSRPDIKFDSDGRFDDDYFQESNESSQFRQEYEMRKIKQEQGLDMISEGLDALKNMASDMNEELDRQVPLMDEIDTKVDRATSDLKNTNVRLKDTVNQLRSSRNFCIDIVLLCIVLGIAAYLYNVLK

Second part, the binder before the results:

Binder	binding [1]	binding [2]	binding [3]	binding [4]
SNAP33 (Qbc-SNARE) (protein, UniProt Q9S7P9 1-300) MFGLRKSPANLPKHNSVDLKSSKPNPFDSDDESDNKHTLNPSKRTTSEPSLADMTNPFGGERVQKGDSSSSKQSLFSNSKYQYKNNFRDSGGIENQSVQELEGYAVYKAEETTKSVQGCLKVAEDIRSDATRTLVMLHDQGEQITRTHHKAVEIDHDLSRGEKLLGSLGGMFSKTWKPKKTRPINGPVVTRDDSPTRRVNHLEKREKLGLNSAPRGQSRTREPLPESADAYQRVEMEKAKQDDGLSDLSDILGELKNMAVDMGSEIEKQNKGLDHLHDDVDELNFRVQQSNQRGRRLLGK	binds	binds	binds	binds
SYP31 (Q-SNARE, Golgi) (protein, UniProt Q9FFK1 1-336) MGSTFRDRTVELHSLSQTLKKIGAIPSVHQDEDDPASSKRSSPGSEFNKKASRIGLGIKETSQKITRLAKLAKQSTIFNDRTVEIQELTVLIRNDITGLNMALSDLQTLQNMELADGNYSQDQVGHYTAVCDDLKTRLMGATKQLQDVLTTRSENMKAHENRKQLFSTKNAVDSPPQNNAKSVPEPPPWSSSSNPFGNLQQPLLPPLNTGAPPGSQLRRRSAIENAPSQQMEMSLLQQTVPKQENYSQSRAVALHSVESRITELSGIFPQLATMVTQQGELAIRIDDNMDESLVNVEGARSALLQHLTRISSNRWLMMKIFAVIILFLIVFLFFVA	binds	binds	binds	binds
SYP21 (Q-SNARE, MVB, vacuole) (protein, UniProt Q39233 1-279) MSFQDLEAGTRSPAPNRFTGGRQQRPSSRGDPSQEVAAGIFRISTAVNSFFRLVNSIGTPKDTLELRDKLQKTRLQISELVKNTSAKLKEASEADLHGSASQIKKIADAKLAKDFQSVLKEFQKAQRLAAEREITYTPVVTKEIPTSYNAPELDTESLRISQQQALLLQSRRQEVVFLDNEITFNEAIIEEREQGIREIEDQIRDVNGMFKDLALMVNHQGNIVDDISSNLDNSHAATTQATVQLRKAAKTQRSNSSLTCLLILIFGIVLLIVIIVVLV	binds	binds	binds	binds
NPSN11 (Qb-SNARE) (protein, UniProt Q944A9 1-265) MDPISAVSEELAEIEGQINDIFRALSNGFQKLEKIKDANRQSRQLEELTDKMRDCKSLIKDFDREIKSLESGNDASTNRMLNDRRQSMVKELNSYVALKKKYSSNLASNNKRVDLFDGPGEEHMEENVLLASNMSNQELMDKGNSMMDDTDQAIERGKKIVQETINVGTDTSAALKAQTEQMSRVVNELDSIHFSLKKASKLVKEIGRQVATDKCIMAFLFLIVIGVIAIIIVKIVNPNNKDIRDIPGVGLAPPAMNRRLLWNHY	binds	binds	binds	binds
